The assay can be described thus: qHTS Assay for Modulators of Lamin A Splicing. The settings on record: HeLa LMNA splicing GFP/RFP minigene ratio, 48 h. An outline of the steps:
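S3 HeLa cells stably expressing lamin A-EGFP splicing minigene plus DsRed2, 600 cells/well, 48 h compound exposure at 37C. Laser-scanning cytometry; analysed as GFP (500-530 nm)/RFP (575-640 nm) total intensity ratio; 0.5% DMSO vehicle.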
(In general: qHTS replaces the single test concentration by a dilution series.)

[1] abbreviates: measured here: GFP splicing reporter channel.
[2] abbreviates: measured here: RFP viability control channel.

The list shows a part of the results. The main result of the screen is listed elsewhere. These columns were measured beside it and carry no call. The list favours compounds with an active or inconclusive main result. The note in brackets gives the kind of curve behind each potency; many fits are weak.

As to `Nc1ncnc2nc(SCCc3ccccc3)[nH]c12`, the AC50 under setting [1] is 35.5 µM [rising, single point].

As to `O=C(CN(Cc1cccs1)S(=O)(=O)c1ccc(S(=O)(=O)NC2CCCCC2)cc1)Nc1ccccc1`, the AC50 under setting [2] was 35.5 µM [rising, single point].

As for `CCOC(=O)N1CCN(S(=O)(=O)c2ccc(C(=O)NNc3nc4c(C)cccc4s3)cc2)CC1`, the concentration at half-maximal activity (AC50) under setting [2] is 11.2 µM [rising, partial curve].

Turning to `CCOc1ccccc1N(C)C(=O)c1cc(S(=O)(=O)NCCc2ccc(Cl)cc2)ccc1F`, under setting [2], the AC50 is 10 µM [rising, partial curve].

As to `COc1ccc(NS(=O)(=O)c2cc(NC(=O)c3nn(C)c(=O)c4ccccc34)ccc2OC)cc1`, under setting [2], the AC50 was 35.5 µM [rising, partial curve, poor fit].

For `CCOc1ccccc1C(=O)Nc1cc(OC)ccc1OC`, the AC50 under setting [1] was 35.5 µM [rising, single point] and the AC50 under setting [2] was 35.5 µM [rising, single point].

As to `COc1ccc(NC(=O)C2CCCCN2S(=O)(=O)c2ccc(F)cc2)c(OC)c1` (stereo not given), the AC50 runs as follows: under setting [1], 35.5 µM [rising, single point]; under setting [2], 31.6 µM [rising, single point].

`Cc1ccc(C)c2[nH]c(=O)c(CN(Cc3ccco3)C(=O)Nc3ccccc3)cc12`: the AC50 reads like this: under setting [1], 28.2 µM [rising, single point]; under setting [2], 11.2 µM [rising, partial curve].

As to `OC(CSc1c(Cl)cccc1Cl)CN1CCN(c2ccc(F)cc2)CC1` (stereo not given), the AC50 under setting [2] was 35.5 µM [rising, single point].

With `COc1cccc2nc3cc(C)c(C)cc3nc12`, under setting [2], the AC50 is 1.26 µM [rising, partial curve].

For the compound `COC(=O)CN1C(c2cccc(Cl)c2)=Nc2ccc(Cl)cc2C1c1ccccc1` (stereo not given), the AC50 under setting [2] is 11.2 µM [rising, partial curve].

Turning to `COc1cc2c(cc1NC(=O)C(C)Sc1cccc[n+]1[O-])oc1ccccc12` (stereo not given), the AC50 under setting [1] was 35.5 µM [rising, single point].

As for `Cc1ccsc1S(=O)(=O)N1CCCC(CCC(=O)NCc2ccccc2F)C1` (stereo not given), the AC50 under setting [2] is 17.8 µM [falling, partial curve, poor fit].

On to `O=C(Cn1c(C(F)(F)F)nc2ccccc21)N=Nc1c(O)[nH]c2ccc(Br)cc12`, for which the AC50 reads like this: under setting [1], 20 µM [falling, partial curve]; under setting [2], 20 µM [falling, partial curve].

`Cc1ccc(NC(=O)c2cc3c(s2)CCCC3)cc1`: under setting [1], the AC50 is 35.5 µM [falling, single point].

Consider `CCOc1cccc(OCCOc2ccc(C(=O)c3ccccc3)cc2)c1`, for which the AC50 was 17.8 µM [rising, single point] under setting [1] and 35.5 µM [rising, single point] under setting [2].

In the case of `O=C(Nc1ccc(Oc2ccccc2)cc1)C1CCCO1` (stereo not given), the AC50 under setting [1] is 35.5 µM [rising, single point].

Turning to `COc1ccc(S(=O)(=O)Nc2ccccc2C(=O)Nc2nc(-c3ccc(F)cc3)cs2)cc1OC`, the AC50 under setting [2] was 5.01 µM [rising, full curve].

As to `CC(=O)Nc1ccc(OS(=O)(=O)c2c(C)cc(C)cc2C)cc1`, the AC50 runs as follows: under setting [1], 35.5 µM [rising, single point]; under setting [2], 31.6 µM [rising, single point].

Consider `Cc1ncc(C[n+]2csc(CCO)c2C)c(N)n1`, for which the AC50 under setting [1] was 0.00501 µM [falling, full curve, poor fit] and the AC50 under setting [2] was 0.316 µM [rising, single point].

With `CCOC(=O)c1cnc2nc[nH]n2c1=O`, the AC50 is 0.00501 µM [falling, full curve, poor fit] under setting [1] and 0.00501 µM [falling, full curve, poor fit] under setting [2].

For `Cc1ccsc1-c1n[nH]c(=S)n1CC(C)C`, the AC50 under setting [2] is 0.0891 µM [rising, full curve, poor fit].

As to `CN(Cc1ccco1)C(=O)Cn1c(=O)oc2cc(S(=O)(=O)NCc3ccccc3)ccc21`, the AC50 under setting [2] is 22.4 µM [rising, partial curve, poor fit].

Turning to `CCOc1ccc(C(=O)N(CN2CCCC2=O)c2ccc(C)cc2)cc1`, the AC50 under setting [2] was 15.8 µM [rising, single point].

As for `CC(=O)OCC(=O)[C@@]1(O)CC[C@H]2[C@@H]3CCC4=CC(=O)CC[C@]4(C)[C@H]3[C@@H](O)C[C@@]21C`, the AC50 under setting [1] is 0.0708 µM [falling, full curve, poor fit] and the AC50 under setting [2] was 0.0316 µM [falling, full curve].

In the case of `Cn1c(CNC2CCCCC2)nc2ccccc21`, under setting [2], the AC50 was 0.316 µM [falling, full curve].

`CCOc1ccc(CN(C)CC(=O)Nc2cccc(C)c2)cc1OC`: the AC50 under setting [1] is 11.2 µM [falling, single point].

Regarding `O=C(c1ccccc1)c1cccn1CC(=O)N1CCN(c2ccc(F)cc2)CC1`, the AC50 under setting [2] is 0.398 µM [falling, full curve, poor fit].

Turning to `CCCn1c(SCC#N)nc2c(c1=O)C1(CCCC1)Cc1ccccc1-2`, the AC50 runs as follows: under setting [1], 35.5 µM [rising, single point]; under setting [2], 35.5 µM [rising, single point].

As to `Clc1ccc(-n2nnnc2-c2ccccc2)cc1`, under setting [2], the AC50 is 12.6 µM [rising, partial curve].

Take `Clc1ccc(Nc2ncnc3ccc(Br)cc23)cc1`: the AC50 runs as follows: under setting [1], 7.94 µM [rising, partial curve, poor fit]; under setting [2], 15.8 µM [rising, partial curve].

Regarding `Cc1cc(C=C2C(=O)c3ccccc3C2=O)c(C)n1-c1ccccc1`, the AC50 was 35.5 µM [falling, single point] under setting [1] and 35.5 µM [falling, single point] under setting [2].

Turning to `COc1ccc(-c2cnnc(N/N=C/c3ccc(O)c(OC)c3)n2)cc1`, the AC50 under setting [2] was 10 µM [rising, single point].

For `CCOC(=O)NC(NCc1ccccc1)(C(F)(F)F)C(F)(F)F`, the AC50 under setting [1] was 35.5 µM [falling, single point].

`CCOc1cc(/C=C2\C(=O)N(c3ccc(C(N)=O)cc3)N=C2C)ccc1OC(=O)c1cccs1`: the AC50 reads like this: under setting [1], 14.1 µM [falling, single point]; under setting [2], 22.4 µM [falling, partial curve, poor fit].

Consider `CC(Nc1ncnc2c1cnn2-c1cccc(Cl)c1)c1ccccc1` (stereo not given), for which the AC50 runs as follows: under setting [1], 12.6 µM [falling, partial curve]; under setting [2], 25.1 µM [falling, single point].

Broadly, the AC50 is the midpoint of the concentration-response curve, whichever way the signal moves.

(Values after PubChem BioAssay AID1487 (National Center for Advancing Translational Sciences (NCATS), 2009).)
